# Experimental data taken from PubChem BioAssay (Tox21).
# Sequences of proteins named here, by UniProt entry; tags and fusion partners are left off.
# UniProt P11712, whole entry, looked up: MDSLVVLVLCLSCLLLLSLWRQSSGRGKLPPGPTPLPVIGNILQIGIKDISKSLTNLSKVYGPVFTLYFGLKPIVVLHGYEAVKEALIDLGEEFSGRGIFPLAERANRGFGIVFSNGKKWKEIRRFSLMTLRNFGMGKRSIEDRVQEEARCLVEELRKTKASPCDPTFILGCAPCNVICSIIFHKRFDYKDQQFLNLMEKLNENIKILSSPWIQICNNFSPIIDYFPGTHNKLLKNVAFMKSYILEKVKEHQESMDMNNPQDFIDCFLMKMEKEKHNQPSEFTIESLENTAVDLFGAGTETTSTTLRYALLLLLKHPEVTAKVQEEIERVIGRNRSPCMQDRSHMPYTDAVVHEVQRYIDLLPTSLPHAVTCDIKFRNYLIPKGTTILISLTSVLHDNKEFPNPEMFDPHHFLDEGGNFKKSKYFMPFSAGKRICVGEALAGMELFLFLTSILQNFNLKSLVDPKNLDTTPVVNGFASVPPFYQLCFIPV
# UniProt P05177, whole entry, looked up: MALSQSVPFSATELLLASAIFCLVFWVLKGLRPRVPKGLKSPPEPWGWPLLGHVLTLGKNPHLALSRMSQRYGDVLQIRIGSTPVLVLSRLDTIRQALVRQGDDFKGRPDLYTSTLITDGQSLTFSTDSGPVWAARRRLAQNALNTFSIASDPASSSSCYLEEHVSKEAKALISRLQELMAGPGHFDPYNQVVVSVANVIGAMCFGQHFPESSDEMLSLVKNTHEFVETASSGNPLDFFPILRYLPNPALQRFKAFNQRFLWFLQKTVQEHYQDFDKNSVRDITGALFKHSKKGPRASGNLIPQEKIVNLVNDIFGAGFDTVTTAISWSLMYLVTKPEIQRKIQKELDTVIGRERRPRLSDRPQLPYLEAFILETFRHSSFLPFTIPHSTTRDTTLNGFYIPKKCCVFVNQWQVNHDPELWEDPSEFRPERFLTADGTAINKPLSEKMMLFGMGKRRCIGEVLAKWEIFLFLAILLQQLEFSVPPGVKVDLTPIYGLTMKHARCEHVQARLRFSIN
# “And” between values parts separate entries of the source, which are not always exact repeats. Identical values can stand only once. This list was built around the results that the source calls inconclusive (neither active nor inactive); the mix of calls is not that of the screen. Where the call is inconclusive, the potency comes from a doubtful curve fit. The source made the active and inactive calls. Calls follow the shape of the dose curve; as a rule, active = well fitted inhibition curve with a large enough effect in the repeat runs; inconclusive = weak or mixed curves; inactive = no such curve, though single readings can be large or run the other way.
# Target: Cytochrome P450 2C9 (Homo sapiens) (UniProt P11712)
# Assay: Cytochrome P450 Family 2 Subfamily C Member 9 (CYP2C9) small molecule antagonists: luciferase reporter qHTS assay (AID 1671198)
# Conditions: P450-Glo CYP2C9 enzyme assay, luciferin luminescence; series mostly up to 115 µM
# Summary of the method: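 CYP2C9 activity was measured with a P450-Glo proluciferin substrate. Enzyme–substrate mix was held with compound for 10 min at room temperature, then NADPH regeneration solution was added for 1 h at 37C. Luciferin product was read as luminescence.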
# Also: nearly all actives have a fitted effect of over 50% in size.
# Potency is read from the fitted curve at half-maximal effect.
row,SMILES,Potency
1,C=CCOc1ccccc1OCC(O)CNC(C)C (configuration not stated),inactive
2,COC(Cc1ccccc1)OC,"inconclusive: 89.4 µM [inhibitor, partial curve, poor fit]"
3,CCOC(=O)C1CC(=O)C(=C(O)C2CC2)C(=O)C1 (configuration not stated),"inconclusive: 39.9 µM [inhibitor, partial curve]"
4,CC(C)c1ccccc1,inactive
5,OC1CCCCC1c1ccccc1 (configuration not stated),inconclusive: 39.9 µM [inhibitor]
6,CCCCCCCCN(C)C,"inconclusive: 79.6 µM [inhibitor, single point]"
7,CCCCCCCC(=O)OCC(COC(=O)CCCCCCC)OC(=O)CCCCCCC,"inactive and inconclusive: 63.3 µM [inhibitor, partial curve, poor fit]"
8,COC(=O)Nc1ccc(Cl)c(Cl)c1,active: 70.6 µM
9,COc1cc(C=O)ccc1OC(=O)C(C)C,active: 35.6 µM
10,CCCCCCCCCCO,"inconclusive: 71 µM [inhibitor, partial curve, poor fit]"
11,CCc1cnc(C(=O)O)c(C(=O)O)c1,"inconclusive: 32.9 µM [inhibitor, partial curve, poor fit]"
12,Cc1ccc(C)o1,inactive
13,O=[N+]([O-])c1ccc(Oc2ccc([N+](=O)[O-])cc2)cc1,"inconclusive: 14.5 µM [inhibitor, partial curve]"
14,O=C1OC(=O)C2C3C=CC(C3)C12 (configuration not stated),"inconclusive: 79.6 µM [inhibitor, partial curve, poor fit]"
15,CCCCCCCCS(=O)(=O)O,"inconclusive: 56.6 µM [inhibitor, partial curve]"
16,C=CCCCCCCCC,"inconclusive: 56.8 µM [inhibitor, partial curve, poor fit]"
17,CCCCCCCCCCCCCCO,"inconclusive: 28.3 µM [inhibitor, full curve]"
18,O=C(Nc1ccc([N+](=O)[O-])cc1)Nc1ccc([N+](=O)[O-])cc1,inactive
19,CC[C@H](C)[C@@H](C(=O)O)n1sc2ccccc2c1=O,inactive
20,CCOc1ccc(NS(=O)(=O)c2ccc(N)cc2)nn1,inactive
21,CCCN1C=CN(C)C1,inactive
22,CCn1c2ccccc2c2ccccc21,"inconclusive: 63.3 µM [inhibitor, partial curve]"
23,O=C1CCCCCCCCCCC(=O)OCCO1,"inconclusive: 39.9 µM [inhibitor, partial curve]"
24,CCCCCCCCCCCc1ccccc1,inactive
25,CC(C)NCC(O)c1cc(O)cc(O)c1 (configuration not stated),inactive
26,CC(COc1ccccc1)NC(C)C(O)c1ccc(O)cc1 (configuration not stated),active: 15.5 µM

# Target: Cytochrome P450 1A2 (Homo sapiens) (UniProt P05177)
# Assay: Cytochrome P450 Family 1 Subfamily A Member 2 (CYP1A2) small molecule antagonists: luciferase reporter qHTS assay (AID 1671199)
# Conditions: P450-Glo CYP1A2 enzyme, luciferin luminescence, 1 h; series mostly up to 115 µM
# Summary of the method: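 Compounds were incubated with CYP1A2 and a luminogenic proluciferin substrate for 10 min at room temperature before the reaction was started with NADPH regeneration solution. After 1 h, detection reagent was added and light output, proportional to CYP activity, was recorded.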
row,SMILES,Potency
1,CCOC(=O)NCCC[Si](OCC)(OCC)OCC,inactive
2,CC(C)c1cc2c(cc1S(=O)(=O)O)[C@@]1(C)CCC[C@@](C)(C(=O)O)[C@@H]1CC2,inconclusive: 27.5 µM [inhibitor]
3,C=CCc1ccc(O)c(OC)c1,"inconclusive: 28.8 µM [inhibitor, partial curve]"
4,CCCCCCCC(=O)OCC(COC(=O)CCCCCCC)OC(=O)CCCCCCC,"inconclusive: 79.6 µM [inhibitor, partial curve, poor fit]"
5,C=CCCCCCCCC,"inconclusive: 35.8 µM [inhibitor, partial curve]"
6,CCCCCCCCCCCCCCO,"inconclusive: 64.1 µM [inhibitor, partial curve, poor fit] and active: 22.4 µM"
